Measurements taken from US20190151256A1, “Composition Including Nonanal As Active Ingredient For Preventing Hair Loss Or Stimulating Hair Development” (Industry-Academic Cooperation Foundation, Yonsei University, priority 2017, published 2019).
At least one compound was matched to its structure with a doubt left.

System: hair follicles
Assay: histological analysis of dorsal skin
Assay type: in vivo, C57BL/6N mice
Settings: 4 weeks of application
Source text: The experimental animals were sacrificed after four weeks of the application, and a dorsal skin tissue specimen was extracted from the test material-applied region using scissors and forceps, and then fixed with formalin. By steps, the resulting specimen was dehydrated with an alcohol and xylene, embedded in paraffin, sliced into a 5-μm fragment using a microtome, and treated again with an alcohol and xylene to remove paraffin. After hematoxylin-eosin staining, a histological change in hair follicle tissue was observed using an optical microscope. The hair development cycle was evaluated by a pathologist, the number and diameter of hair follicles were measured using an optical microscope, and the number of hair follicles in the test group was measured under a 40× optical microscope.

## Nc1cc(N2CCCCC2)nc(N)[n+]1[O-] [Minoxidil, reference compound]
  microscopy of hair follicles: hair follicles elongated to come out of the skin
  number of hair follicles compared with negative control: significantly increased
Image analysis
  hair follicle diameter compared with negative control: significantly increased
